No constants are given. Whether binding was seen depends on the method and setting. Some entries that bind do so weakly or less than the wild type. Sequences can lack the tags named with a protein.
T1: EphA3 (wild type, expressed in cells) (UniProt P29320)
T1 sequence (looked up): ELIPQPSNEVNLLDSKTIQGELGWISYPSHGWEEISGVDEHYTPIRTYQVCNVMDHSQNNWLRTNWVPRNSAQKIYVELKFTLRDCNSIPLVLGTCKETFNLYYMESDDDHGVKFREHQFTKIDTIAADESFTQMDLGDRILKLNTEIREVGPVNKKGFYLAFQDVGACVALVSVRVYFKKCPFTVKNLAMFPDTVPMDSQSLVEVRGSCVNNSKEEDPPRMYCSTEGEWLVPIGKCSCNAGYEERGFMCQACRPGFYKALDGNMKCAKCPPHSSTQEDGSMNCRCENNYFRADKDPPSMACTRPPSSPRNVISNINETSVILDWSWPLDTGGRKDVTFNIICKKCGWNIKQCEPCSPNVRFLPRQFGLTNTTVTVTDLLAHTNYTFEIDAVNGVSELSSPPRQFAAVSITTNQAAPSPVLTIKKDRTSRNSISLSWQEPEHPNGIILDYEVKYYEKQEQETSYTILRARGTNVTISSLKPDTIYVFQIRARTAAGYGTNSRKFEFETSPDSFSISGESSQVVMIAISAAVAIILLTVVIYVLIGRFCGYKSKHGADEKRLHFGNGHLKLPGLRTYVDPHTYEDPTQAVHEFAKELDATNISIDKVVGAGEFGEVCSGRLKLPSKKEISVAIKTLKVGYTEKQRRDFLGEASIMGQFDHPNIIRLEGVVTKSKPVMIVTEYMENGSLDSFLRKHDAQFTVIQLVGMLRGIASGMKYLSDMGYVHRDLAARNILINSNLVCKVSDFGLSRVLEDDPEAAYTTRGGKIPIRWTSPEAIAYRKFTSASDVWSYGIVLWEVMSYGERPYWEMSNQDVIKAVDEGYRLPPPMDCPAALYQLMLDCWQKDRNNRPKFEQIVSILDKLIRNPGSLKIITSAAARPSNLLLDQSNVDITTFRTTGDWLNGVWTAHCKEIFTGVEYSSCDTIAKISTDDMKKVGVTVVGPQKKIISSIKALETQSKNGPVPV

T2: EphA3/ephrin-A5 complex on cells (cell-surface EphA3 with pre-clustered ephrin-A5-Fc) (human) (UniProt P29320+P52803)
T2 sequence (looked up) 1: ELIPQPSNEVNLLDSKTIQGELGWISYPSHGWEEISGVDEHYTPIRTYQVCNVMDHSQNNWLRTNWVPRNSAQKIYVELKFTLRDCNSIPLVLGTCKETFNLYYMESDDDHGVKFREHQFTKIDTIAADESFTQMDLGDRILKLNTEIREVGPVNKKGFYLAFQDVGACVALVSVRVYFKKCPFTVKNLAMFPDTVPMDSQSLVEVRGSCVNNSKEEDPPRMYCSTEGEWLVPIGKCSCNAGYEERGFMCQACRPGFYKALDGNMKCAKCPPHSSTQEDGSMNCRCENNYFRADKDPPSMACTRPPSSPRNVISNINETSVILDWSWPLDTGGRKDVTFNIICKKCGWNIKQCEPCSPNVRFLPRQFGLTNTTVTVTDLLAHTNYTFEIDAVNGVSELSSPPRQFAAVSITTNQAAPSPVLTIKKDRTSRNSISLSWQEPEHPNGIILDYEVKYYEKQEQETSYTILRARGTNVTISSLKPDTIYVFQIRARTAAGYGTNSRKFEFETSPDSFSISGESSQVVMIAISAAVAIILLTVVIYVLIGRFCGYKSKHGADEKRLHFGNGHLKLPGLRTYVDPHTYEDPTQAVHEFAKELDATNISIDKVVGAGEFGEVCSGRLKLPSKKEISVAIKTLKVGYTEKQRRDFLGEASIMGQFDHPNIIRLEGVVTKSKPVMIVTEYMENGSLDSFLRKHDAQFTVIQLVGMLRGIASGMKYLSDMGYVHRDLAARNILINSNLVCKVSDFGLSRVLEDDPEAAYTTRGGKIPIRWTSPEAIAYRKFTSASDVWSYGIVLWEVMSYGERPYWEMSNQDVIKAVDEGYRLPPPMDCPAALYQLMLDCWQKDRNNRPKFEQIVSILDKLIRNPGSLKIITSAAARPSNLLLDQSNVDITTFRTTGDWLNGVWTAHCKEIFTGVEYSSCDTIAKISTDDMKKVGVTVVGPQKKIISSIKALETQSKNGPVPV
T2 sequence (looked up) 2: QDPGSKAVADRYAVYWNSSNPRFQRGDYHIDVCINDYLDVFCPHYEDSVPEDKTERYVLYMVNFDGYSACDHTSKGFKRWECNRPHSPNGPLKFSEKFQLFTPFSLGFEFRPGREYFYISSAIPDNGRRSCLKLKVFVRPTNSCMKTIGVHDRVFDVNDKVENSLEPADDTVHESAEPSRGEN


What was measured:
[1] = biological target: T1, EphA3 (wild type, expressed in cells); assay: anti-HA and anti-EphA3 immunoprecipitation from EphA3/293 cells, Western blot
[2] = biological target: T2, EphA3/ephrin-A5 complex on cells (cell-surface EphA3 with pre-clustered ephrin-A5-Fc) (human); assay: anti-EphA3 immunoprecipitation, anti-ADAM10 Western blot

binding [1] | binding [2] | Binder
binds |  | HA-ADAM10ΔMP [EEE-A] (protein, mouse, UniProt O35598 456-749, looked up, not shown: small tags and cut ends) SGQPICGNGMVEQGEECDCGYSDQCKDDCCFDANQPEGKKCKLKPGKQCSPSQGPCCTAQCAFKSKSEKCRDDSDCAKEGICNGFTALCPASDPKPNFTDCNRHTQVCINGQCAGSICAKYDLAACTCASSDGKDDKELCHVCCMKKMAPSTCASTGSLQWSKQFSGRTITLQPGSPCNDFRGYCDVFMRCRLVDADGPLARLKKAIFSPQLYENIAEWIVAHWWAVLLMGIALIMLMAGFIKICSVHTPSSNPKLPPPKPLPGTLKRRRPPQPIQQPPRQRPRESYQMGHMRR
 | binds | endogenous ADAM10 (HEK293 and LiBr melanoma cells) (enzyme, human, UniProt O14672 214-748, looked up, whole, on cells; Both pro and mature forms are marked on the blot; also called pro (unprocessed) and mature (processed) forms) TTSAEKNTCQLYIQTDHLFFKYYGTREAVIAQISSHVKAIDTIYQTTDFSGIRNISFMVKRIRINTTADEKDPTNPFRFPNIGVEKFLELNSEQNHDDYCLAYVFTDRDFDDGVLGLAWVGAPSGSSGGICEKSKLYSDGKKKSLNTGIITVQNYGSHVPPKVSHITFAHEVGHNFGSPHDSGTECTPGESKNLGQKENGNYIMYARATSGDKLNNNKFSLCSIRNISQVLEKKRNNCFVESGQPICGNGMVEQGEECDCGYSDQCKDECCFDANQPEGRKCKLKPGKQCSPSQGPCCTAQCAFKSKSEKCRDDSDCAREGICNGFTALCPASDPKPNFTDCNRHTQVCINGQCAGSICEKYGLEECTCASSDGKDDKELCHVCCMKKMDPSTCASTGSVQWSRHFSGRTITLQPGSPCNDFRGYCDVFMRCRLVDADGPLARLKKAIFSPELYENIAEWIVAHWWAVLLMGIALIMLMAGFIKICSVHTPSSNPKLPPPKPLPGTLKRRRPPQPIQQPQRQRPRESYQMGHMRR
